The target in this test is GFP-MreB from Anabaena sp. PCC 7120 (Anabaena sp. PCC 7120). Put plainly: co-IP; anti-GFP co-immunoprecipitation (µMACS GFP isolation kit) from cell-free lysates of cyanobacteria expressing gfp-mreB from PmreB, PBS with 1% NP-40 and protease inhibitor cocktail, 30 min on ice; western blot with anti-FtsZSubsV and anti-GFP; WT cells as control. For orientation: In western blotting, separated proteins are transferred to a membrane and probed.

No constants are given. Whether binding was seen depends on the method and setting. Binding seen in cells or lysates may run through a third protein.

Our source for the binding values is paper PMC7714070, “The role of the cytoskeletal proteins MreB and FtsZ in multicellular cyanobacteria” (FEBS Open Bio, 2020).

B1: FtsZ of Anabaena sp. PCC 7120, endogenous (protein, UniProt P45482 1-428)
chain: MTLDNNQELTYRNSQSLGQPGFSLAVNSSNPFNHSGLNFGQNNDSKKISVENNRIGEIVPGRVANIKVIGVGGGGGNAVNRMIESDVSGVEFWSINTDAQALTLAGAPSRLQIGQKLTRGLGAGGNPAIGQKAAEESRDEIATALEGADLVFITAGMGGGTGTGAAPIVAEVAKEMGALTVGVVTRPFVFEGRRRTSQAEQGIEGLKSRVDTLIIIPNNKLLEVIPEQTPVQEAFRYADDVLRQGVQGISDIITIPGLVNVDFADVRAVMADAGSALMGIGVSSGKSRAREAAIAAISSPLLECSIEGARGVVFNITGGSDLTLHEVNAAAETIYEVVDPNANIIFGAVIDDRLQGEVRITVIATGFTGEIQAAPQQNAANARVVSAPPKRTPTQTPLTNSPAPTPEPKEKSGLDIPDFLQRRRPPKN
As to B1, the binding result is “no binding”.
